Experimental findings from publication PMC10480535 are described below.

Amino acid sequences for entries named in this document (tags omitted). A change or cut given only in a name is not applied to a line headed by its entry.
UniProt Q99575: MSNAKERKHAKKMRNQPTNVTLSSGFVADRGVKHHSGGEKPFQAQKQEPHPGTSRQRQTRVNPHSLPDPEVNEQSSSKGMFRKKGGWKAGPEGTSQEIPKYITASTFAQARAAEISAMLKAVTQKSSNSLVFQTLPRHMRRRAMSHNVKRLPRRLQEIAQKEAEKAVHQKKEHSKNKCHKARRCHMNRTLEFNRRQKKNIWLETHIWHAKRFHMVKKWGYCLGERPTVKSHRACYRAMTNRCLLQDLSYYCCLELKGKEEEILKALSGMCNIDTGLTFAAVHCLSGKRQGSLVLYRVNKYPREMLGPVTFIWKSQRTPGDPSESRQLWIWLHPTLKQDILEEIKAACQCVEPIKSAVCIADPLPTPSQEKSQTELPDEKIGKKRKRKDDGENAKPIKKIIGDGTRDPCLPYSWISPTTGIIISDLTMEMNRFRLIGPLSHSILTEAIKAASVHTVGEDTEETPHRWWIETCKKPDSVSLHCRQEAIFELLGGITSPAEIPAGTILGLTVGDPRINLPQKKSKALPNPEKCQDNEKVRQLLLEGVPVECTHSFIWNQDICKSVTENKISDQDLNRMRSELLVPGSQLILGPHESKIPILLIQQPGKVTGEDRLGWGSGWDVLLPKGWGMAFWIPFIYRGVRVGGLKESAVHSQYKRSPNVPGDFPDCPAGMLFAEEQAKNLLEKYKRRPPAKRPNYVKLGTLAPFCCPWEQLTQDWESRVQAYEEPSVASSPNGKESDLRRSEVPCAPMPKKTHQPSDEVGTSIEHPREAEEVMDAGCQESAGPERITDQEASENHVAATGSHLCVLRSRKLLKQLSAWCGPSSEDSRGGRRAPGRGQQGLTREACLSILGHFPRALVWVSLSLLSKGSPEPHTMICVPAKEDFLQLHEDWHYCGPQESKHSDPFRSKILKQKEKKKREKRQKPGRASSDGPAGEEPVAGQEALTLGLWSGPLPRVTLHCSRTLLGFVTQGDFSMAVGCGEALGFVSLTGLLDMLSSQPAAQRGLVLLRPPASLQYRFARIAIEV

These are yes or no findings as the source states them, for the method shown. In cells and extracts the contact can be indirect. Some entries that bind do so weakly or less than the wild type. Where a sequence is shown, tags or fusion partners need not be part of it.

The target in one assay is T1, GST-MOB3C (human) (UniProt Q70IA8).
T1 sequence: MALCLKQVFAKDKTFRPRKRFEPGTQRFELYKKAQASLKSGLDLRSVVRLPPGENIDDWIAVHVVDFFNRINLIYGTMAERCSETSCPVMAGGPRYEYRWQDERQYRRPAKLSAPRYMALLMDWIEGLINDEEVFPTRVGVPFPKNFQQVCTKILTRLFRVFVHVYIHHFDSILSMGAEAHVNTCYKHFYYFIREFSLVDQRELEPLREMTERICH
The experiment in a line: pull-down; ~120 pmol purified GST-MOB3C or GST-MOB1A mixed with cleared HeLa lysate (20 mM Tris-HCl pH 8, 100 mM NaCl, 5 mM MgCl2), 37 °C 15 min then ice 30 min, glutathione agarose 90 min at 4 °C; RNase P on the beads detected by cleavage of pre-tRNA^Arg (n-Tr21) at 15, 22 and 30 min; only the target ….

The next assay deals with T2, GST-MOB1A (human) (UniProt Q9H8S9).
T2 sequence: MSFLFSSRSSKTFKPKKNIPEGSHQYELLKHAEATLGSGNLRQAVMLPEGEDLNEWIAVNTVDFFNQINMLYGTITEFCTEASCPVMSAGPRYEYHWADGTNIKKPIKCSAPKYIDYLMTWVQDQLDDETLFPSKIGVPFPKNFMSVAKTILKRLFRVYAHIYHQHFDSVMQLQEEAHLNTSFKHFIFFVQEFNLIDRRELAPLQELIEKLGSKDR
Described as above.

As for “RNase P complex (from UniProt Q99575 1-1024; O95707 1-220; O95059 1-124; Q9BUL9 1-199; P78346 1-268; P78345 1-283; O75818 1-363; O75817 1-140; Q9H633 1-154; Q969H6 1-163)”, the binding result with GST-MOB3C (human) is “binds”; with GST-MOB1A (human), “no binding (tested: ∼120 pmol GST-MOB1A)”.
